Consider 6 substances from PMC7583830 (Molecules, 2020).

Where no end group is shown, it is not given here. [ ]: non-standard residue; d: D form. The star is where a group is joined. DOTA = O=C(O)CN1CCN(CC(=O)O)CCN(CC(=O)*)CCN(CC(=O)O)CC1; 1Nal = N[C@@H](Cc1cccc2ccccc12)C(=O)O; NMeNle = CCCC[C@H](NC)C(=O)O

One data set in a line: general procedure: Fmoc solid-phase peptide synthesis; 2-chlorotritylchloride (2-CTC) resin, capacity 1.6 mmol/g (Iris Biotech), loaded with 30% of total capacity; HATU/HOAt/DIPEA in DMF, 5-fold excess of Fmoc amino acids. The conditions noted are these: whole synthesis.
In the case of “{DOTA}-[dE]PYGW[NMeNle]-OH (C-terminus assumed; SMILES CCCC[C@@H](C(=O)O)N(C)C(=O)[C@H](Cc1c[nH]c2ccccc12)NC(=O)CNC(=O)[C@H](Cc1ccc(O)cc1)NC(=O)[C@@H]1CCCN1C(=O)[C@@H](CCC(=O)O)NC(=O)CN1CCN(CC(=O)O)CCN(CC(=O)O)CCN(CC(=O)O)CC1)”, the “final HPLC purity” value came out at 98%.

As to “{DOTA}-[dE]PYGW[NMeNle]D-OH (C-terminus assumed; SMILES CCCC[C@@H](C(=O)N[C@@H](CC(=O)O)C(=O)O)N(C)C(=O)[C@H](Cc1c[nH]c2ccccc12)NC(=O)CNC(=O)[C@H](Cc1ccc(O)cc1)NC(=O)[C@@H]1CCCN1C(=O)[C@@H](CCC(=O)O)NC(=O)CN1CCN(CC(=O)O)CCN(CC(=O)O)CCN(CC(=O)O)CC1)”, the “final HPLC purity” value is given as 99%.

Consider “{DOTA}-[dE]PYGW-OH (C-terminus assumed; SMILES O=C(O)CC[C@@H](NC(=O)CN1CCN(CC(=O)O)CCN(CC(=O)O)CCN(CC(=O)O)CC1)C(=O)N1CCC[C@H]1C(=O)N[C@@H](Cc1ccc(O)cc1)C(=O)NCC(=O)N[C@@H](Cc1c[nH]c2ccccc12)C(=O)O)”, for which the “final HPLC purity” value was 93%.

With “{DOTA}-[dE]PYGW[NMeNle]D[1Nal]-OH (SMILES CCCC[C@@H](C(=O)N[C@@H](CC(=O)O)C(=O)N[C@@H](Cc1cccc2ccccc12)C(=O)O)N(C)C(=O)[C@H](Cc1c[nH]c2ccccc12)NC(=O)CNC(=O)[C@H](Cc1ccc(O)cc1)NC(=O)[C@@H]1CCCN1C(=O)[C@@H](CCC(=O)O)NC(=O)CN1CCN(CC(=O)O)CCN(CC(=O)O)CCN(CC(=O)O)CC1)”, the “final HPLC purity” value came out at 94%. Same read-out and setting: as for {DOTA}-[dE]PYG, the figure is 99%.

A short description of another data set: peptide made by a vendor (Fmoc solid-phase peptide synthesis; 2-chlorotritylchloride (2-CTC) resin, capacity 1.6 mmol/g (Iris Biotech), loaded with 30% of total capacity; HATU/HOAt/DIPEA in DMF, 5-fold excess of Fmoc amino acids). The conditions noted are these: whole synthesis.
On to “{DOTA}-[dE]PYGW[NMeNle]D[1Nal]-NH2 (SMILES CCCC[C@@H](C(=O)N[C@@H](CC(=O)O)C(=O)N[C@@H](Cc1cccc2ccccc12)C(N)=O)N(C)C(=O)[C@H](Cc1c[nH]c2ccccc12)NC(=O)CNC(=O)[C@H](Cc1ccc(O)cc1)NC(=O)[C@@H]1CCCN1C(=O)[C@@H](CCC(=O)O)NC(=O)CN1CCN(CC(=O)O)CCN(CC(=O)O)CCN(CC(=O)O)CC1)”, for which the “final HPLC purity” value is recorded as above 95%.
